Test [1] has as its target Haptoglobin extracted from the culture supernatant of a pancreatic cancer cell line (PSN-1) (UniProt P00738). In words: ELISA of Example 1; haptoglobin coated at 10 ng/mL, biotin-labeled AAL (FIG. 7). For orientation: In an ELISA, binding on a coated surface is turned into a signal by an enzyme label.
In test [2] the target is Haptoglobin extracted from serum of pancreatic cancer patients (human) (UniProt P00738). Nature of the test: ELISA of Example 2; haptoglobin extracted from serum coated on the plate, biotin-labeled AAL (FIG. 9).

By UniProt entry, the sequences of proteins in these tests, tags left out. Residues count along the entry.
UniProt P00738, residues 19-406: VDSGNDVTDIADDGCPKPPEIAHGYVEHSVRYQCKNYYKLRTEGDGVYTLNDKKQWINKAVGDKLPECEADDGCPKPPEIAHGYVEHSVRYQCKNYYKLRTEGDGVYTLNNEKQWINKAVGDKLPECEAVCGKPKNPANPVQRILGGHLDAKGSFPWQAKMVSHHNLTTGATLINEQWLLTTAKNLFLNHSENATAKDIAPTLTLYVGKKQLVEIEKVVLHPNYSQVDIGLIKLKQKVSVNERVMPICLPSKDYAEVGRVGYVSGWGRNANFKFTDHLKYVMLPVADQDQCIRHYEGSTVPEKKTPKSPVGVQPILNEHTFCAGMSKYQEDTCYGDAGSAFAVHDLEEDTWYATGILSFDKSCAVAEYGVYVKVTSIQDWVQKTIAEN

This is an account of results in patent US20120244563A1.

These are yes or no findings as the source states them, for the method shown. Some entries that bind do so weakly or less than the wild type.

B1: Aleuria aurantia lectin (protein, UniProt P18891 2-313, looked up)
chain: PTEFLYTSKIAAISWAATGGRQQRVYFQDLNGKIREAQRGGDNPWTGGSSQNVIGEAKLFSPLAAVTWKSAQGIQIRVYCVNKDNILSEFVYDGSKWITGQLGSVGVKVGSNSKLAALQWGGSESAPPNIRVYYQKSNGSGSSIHEYVWSGKWTAGASFGSTVPGTGIGATAIGPGRLRIYYQATDNKIREHCWDSNSWYVGGFSASASAGVSIAAISWGSTPNIRVYWQKGREELYEAAYGGSWNTPGQIKDASRPTPSLPDTFIAANSSGNIDISVFFQASGVSLQQWQWISGKGWSIGAVVPTGTPAGW
modifications: biotin label (site not stated)
Consider B1, for which the binding entry in test [1] and in test [2] was “binds” throughout.
